According to PubChem BioAssay AID624291 (National Center for Advancing Translational Sciences (NCATS), 2012):
The whole screen tested about 350,000 compounds, of which about 220 (0.063%) were called active. Inconclusive results, whose numbers are uncertain, are shown with a selection of clear calls. The call rests on the fitted dose curve; in most records, active means well fitted activation curve with a large enough effect; inconclusive means small, poorly fitted or top-dose-only effect; inactive means no such curve, though single readings can be large or run the other way. Potencies beside an inconclusive call are fits to weak or partial responses and may not hold up.

Assay: qHTS for Activators of Integrin-Mediated Alleviation for Muscular Dystrophy; further: nearly all actives have a fitted effect of over 60% in size;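 on activation: 100% = response of the positive control SU9516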
Settings: alpha7betagal myoblasts, beta-gal FDG fluorescence, 48 h; activation: at 38.3 µM (top of the series)
Outline: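 Alpha7betagal+/- myoblasts (passage 13) were plated 16-24 hr, then exposed to compounds (1:260 dilution of DMSO stock) for 48 hours at 37C. After MPER lysis, β-galactosidase reporter activity was read as FDG fluorescence (ex 480/em 540) after 30 minutes.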
Potency means the concentration at half of the fitted maximal effect.

Row | SMILES | Potency | activation
1 | CCCCCN(C(=O)CCC(=O)OCC(=O)c1ccc(C(C)CC)cc1)c1c(N)n(CCCC)c(=O)[nH]c1=O (centres undefined) | inconclusive: 0.355 µM [activator, partial curve, poor fit] | 
2 | CC1=C(C(=O)c2ccccc2)C(c2ccc(N3CCOCC3)cc2)NC(=O)N1 (centres undefined) | inconclusive: 3.16 µM [activator, partial curve, poor fit] | 
3 | CCCN(CCC)CCCNC(=O)c1cn(CC)c2ccc(S(=O)(=O)N3CCOCC3)cc2c1=O | inconclusive: 3.98 µM [activator, single point] | 
4 | COc1ccc(-c2[nH]ncc2CN2CCCN(C(=O)c3ccco3)CC2)cc1F | inconclusive: 3.16 µM [activator, single point] | 
5 | O=c1cc(CN2CCc3ccccc32)nc2sccn12 | inactive | 
6 | O=C(NC1CCCCC1)N1CCCC(CNS(=O)(=O)Cc2ccccc2)C1 (centres undefined) | inconclusive: 14.1 µM [activator, partial curve, poor fit] | 
7 | COC(=O)c1cc(S(=O)(=O)n2nc(C)c(Br)c2C)c(Cl)cc1Cl | inactive | 
8 | CCOC(=O)Nc1cc(OC)cc2ccc(C)nc12 | inactive | 
9 | CC1(C)CSC(C)(C)C(=O)N1 | inconclusive: 20 µM [activator, single point] | 
10 | CCNc1nc(NCC)n2c(SC(C(=O)Nc3cc(C)ccc3C)c3ccccc3)nnc2n1 (centres undefined) | inconclusive: 10 µM [activator, single point] | 
11 | CCCCNC(=S)Nc1ccccc1Cc1ccccc1 | inconclusive: 31.6 µM [activator, single point] | 
12 | CCc1nnc(NC(=O)c2cc(S(=O)(=O)N(CC)CC)ccc2Cl)s1 | inconclusive: 10 µM [activator, single point] | 
13 | CC(C)Oc1cccc(-c2cc(C(=O)NC(=S)N(C)c3ccccc3C(=O)O)c3ccccc3n2)c1 | inconclusive: 10 µM [activator, single point] | 
14 | CC1Cc2c([nH]c3ccccc23)C2c3ccccc3CN12 (centres undefined) | inconclusive: 2.82 µM [activator, single point] | 
15 | O=c1[nH]c2ccccc2n1C1=CCNCC1 | inconclusive: 28.2 µM [activator, partial curve, poor fit] | 
16 | O=S(=O)(NCC(c1cccs1)N1CCc2ccccc2C1)c1ccccc1 (centres undefined) | inconclusive: 28.2 µM [activator, single point] | 
17 | CC(=O)c1c(C)[nH]c(C(=O)Nc2ccc(C)c(S(=O)(=O)Nc3ccc(C)cc3C)c2)c1C | inconclusive: 2.51 µM [activator, single point] | 
18 | Cc1cc(OCC(=O)NCCc2cccc(F)c2)c2c(C)cc(=O)oc2c1 | inconclusive: 5.62 µM [activator, single point] | 
19 | CC(=O)c1sc2nc(-c3cccs3)ccc2c1N | inactive | 
20 | O=C(NCCN1CCOCC1)c1ccc(Cl)c(S(=O)(=O)N2CCCC2)c1 | inconclusive: 28.2 µM [activator, single point] | 
21 | CC(NC(=O)C1CC1)C(c1cccs1)N1CCN(c2ccccc2)CC1 (centres undefined) | inactive | 
22 | O=C(Nc1ccc(S(=O)(=O)N2CCCC2)cc1)c1ccc(CN2CCc3ccccc3C2)cc1 | inactive | 
23 | CN1CCN(CC(=O)NC(=O)NC2CCCCC2)CC1 | inconclusive: 1 µM [activator, full curve, poor fit] | 

Row | SMILES | Potency | activation
24 | O=C1CN(C(=O)COC(=O)CNS(=O)(=O)/C=C/c2ccccc2)c2ccccc2N1 | inconclusive: 5.01 µM [activator, single point] | 
25 | CC(=O)NS(=O)(=O)c1ccc(N=c2ssc3c2-c2cc(C)c(C)cc2NC3(C)C)cc1 | inconclusive: 0.447 µM [activator, full curve, poor fit] | 
26 | COc1ccccc1N1CCN(c2cc(=O)n(Cc3ccc(F)cc3)c(=O)[nH]2)CC1 | inactive | 
27 | CC1(c2ccc(Cl)cc2)NC(=O)N(CC(=O)N2CCCC2)C1=O (centres undefined) | inconclusive: 5.01 µM [activator, single point] | 
28 | CN(C)S(=O)(=O)c1cccc(NC(=S)NCCc2ccccn2)c1 | inconclusive: 22.4 µM [activator, single point] | 
29 | CC(=O)Nc1ccc(NC(=O)CSc2ccc3nnc(CCNS(=O)(=O)c4ccc(C)cc4)n3n2)cc1 | inconclusive: 0.891 µM [activator, partial curve, poor fit] | 
30 | CN(C(=O)Nc1ccc(C(C)(C)C)cc1)C1CCCCC1 | inconclusive: 3.16 µM [activator, partial curve, poor fit] | 
31 | CCC1Oc2ccccc2C(=O)N(CC(=O)c2ccc3c(c2)OCCO3)C1=O (centres undefined) | inconclusive: 5.01 µM [activator, single point] | 
32 | COc1ccccc1NC(=O)C(C)Sc1nccn1C (centres undefined) | inconclusive: 10 µM [activator, single point] | 
33 | O=C(O)COc1ccc(F)cc1Br | inactive | 
34 | CCOc1ccccc1N(C)C(=O)c1sc2ncn(CC(=O)N3CCCCC3C)c(=O)c2c1C (centres undefined) | inconclusive: 10 µM [activator, partial curve] | 
35 | COc1cc(C(C(=O)NC2CCCC2)N(Cc2ccco2)C(=O)c2snc(C(N)=O)c2N)cc(OC)c1OC (centres undefined) | inconclusive: 1 µM [activator, full curve, poor fit] | 
36 | O=C(NC1CCCCC1)N(CCN1CCCC1)Cc1cc2cc3c(cc2[nH]c1=O)OCCO3 | inactive | 
37 | CCN(CC(=O)Nc1ccc(NC(C)=O)cc1)C(=O)c1c(-c2c(F)cccc2Cl)noc1C | inconclusive: 14.1 µM [activator, single point] | 
38 | COCC(C)N=Cc1c(O)[nH]c2ccccc12 (centres undefined) | inconclusive: 28.2 µM [activator, single point] | 
39 | CCN1CCc2c(sc(NC(=O)c3ccc(S(=O)(=O)N(C)c4ccccc4)cc3)c2C(=O)NC)C1 | inconclusive: 2.82 µM [activator, single point] | 
40 | CC(C(=O)N1CCN(c2ccccc2F)CC1)c1ccc([N+](=O)[O-])cc1 (centres undefined) | inconclusive: 0.398 µM [activator, partial curve, poor fit] | 
41 | COc1ccc(/C=C/C(=O)c2ccccc2)cc1COc1ccc(F)cc1 | inactive | 
42 | O=C(O)c1cccc(C(=O)Nc2cccc(NC(=O)C3CCCO3)c2)c1 (centres undefined) | inconclusive: 5.01 µM [activator, single point] | 
43 | Cc1nc2ccccc2c(=O)n1-c1ccc(F)c(NC(=O)c2cccs2)c1 | inconclusive: 7.08 µM [activator, partial curve, poor fit] | 
44 | Cn1cc(C(=O)N2CCCC(Nc3ccc(F)cc3)C2)c2ccccc21 (centres undefined) | inconclusive: 10 µM [activator, single point] | 
45 | O=C(O)c1cc(N=Cc2c(O)c3ccccc3oc2=O)ccc1O | active: 7.08 µM | 
46 | CC(C)N=C1NN=C(c2ccc(F)cc2)CS1 | inactive | 

Row | SMILES | Potency | activation
47 | COCCCNc1oc(-c2cccs2)nc1S(=O)(=O)c1ccc(C)cc1 |  | inconclusive: -76% [activator]
48 | CC(OC(=O)c1cc(S(=O)(=O)Nc2ccc(F)cc2)ccc1Cl)C(=O)Nc1ccc2c(c1)OCCO2 (centres undefined) | inconclusive: 28.2 µM [activator, single point] | 
49 | CSCCC(NC(=O)COc1ccccc1)C(=O)N1CCN(c2ccccc2)CC1 (centres undefined) | inactive | 
50 | COc1ccc(OC)c(/C=C/C(=O)OCC(=O)N2CCCCC2)c1 | inactive | 
51 | Cc1ccc(-c2noc(/C=C/c3ccccc3)n2)cc1 | inactive | 
52 | CC(=O)c1cn(C)c(=O)n(C)c1=O | inconclusive: 28.2 µM [activator, single point] | 
53 | N#Cc1nc(-c2cccc3ccccc23)oc1NCCN1CCOCC1 |  | inactive: -18.2% [at 7.66 µM]
54 | Cc1cc(C)cc(NC(=O)CSc2nnc(-c3ccccc3)n2N)c1 | inactive | 
55 | COc1ccc2c(c1)c(C(=O)O)c(C)n2-c1ccc(Cl)cc1 | inconclusive: 2.24 µM [activator, full curve, poor fit] | 
56 | O=C(CN1CCN(c2ccccn2)CC1)Nc1nc2ccccc2s1 | inconclusive: 11.2 µM [activator, partial curve, poor fit] | 
57 | O=C(CSc1nnc(-c2ccc(F)cc2)o1)N1CCCCC1 | inconclusive: 8.91 µM [activator, partial curve, poor fit] | 
58 | COCc1ccc(C(=O)N(C)CC2CCCN(CCc3ccc(OC)cc3)C2)o1 (centres undefined) | inconclusive: 0.447 µM [activator, full curve, poor fit] | 
59 | CCn1c2ccccc2c2cc(NC(=O)N3CCCCC3)ccc21 | inactive | 
60 | CCOC(=O)C1=NN(C(C)=O)C2C(=O)N(CC)C(=O)C12 (centres undefined) | inconclusive: 11.2 µM [activator, single point] | 
61 | CCN1C(=C(C#N)C#N)C=Cc2ccccc21 | inconclusive: 5.01 µM [activator, partial curve, poor fit] | 
62 | OCCNCC(O)Cn1c2ccccc2c2ccccc21 (centres undefined) | inconclusive: 0.355 µM [activator, partial curve, poor fit] | 
63 | Cc1ccccc1Cn1nnc(C(=O)Nc2ccc3c(c2)OCCO3)c1N | inactive | 
64 | O=c1c2ccccc2ncn1CCCSc1ccc(Cl)cc1 | inactive | 
65 | Cc1ccc(S(=O)(=O)CC(=O)c2ccccc2[N+](=O)[O-])cc1 | inconclusive: 15.8 µM [activator, single point] | 
66 | O=C(C[C@H]1C(=O)N(CCc2ccccc2)C[C@@H]1c1ccccc1)Nc1ccccc1 | inactive | 
67 | O=C(CCN1C(=O)/C(=C/c2cccs2)SC1=S)Nc1cccc(O)c1 | inactive | 
68 | CCOc1ccc(OCCCCNC(C)(C)C)cc1 | inactive | 
69 | CCOc1ncccc1C(=O)N(C)CC1COc2ccccc2O1 (centres undefined) | inconclusive: 3.98 µM [activator, partial curve, poor fit] | 

Pulled by compound from the entries so far:
Row | SMILES | Potency | activation
33 | O=C(O)COc1ccc(F)cc1Br | inactive | 
44 | Cn1cc(C(=O)N2CCCC(Nc3ccc(F)cc3)C2)c2ccccc21 (centres undefined) | inconclusive: 10 µM [activator, single point] | 
